Reference: paper doi:10.1101/2020.03.09.979369
These are yes or no findings as the source states them, for the method shown. In cells and extracts the contact can be indirect. Some binding calls cover weakened binding; strength is not graded here.

Protein sequences, listed by entry. Tags and fused reporters are not part of them.
UniProt Q921F2: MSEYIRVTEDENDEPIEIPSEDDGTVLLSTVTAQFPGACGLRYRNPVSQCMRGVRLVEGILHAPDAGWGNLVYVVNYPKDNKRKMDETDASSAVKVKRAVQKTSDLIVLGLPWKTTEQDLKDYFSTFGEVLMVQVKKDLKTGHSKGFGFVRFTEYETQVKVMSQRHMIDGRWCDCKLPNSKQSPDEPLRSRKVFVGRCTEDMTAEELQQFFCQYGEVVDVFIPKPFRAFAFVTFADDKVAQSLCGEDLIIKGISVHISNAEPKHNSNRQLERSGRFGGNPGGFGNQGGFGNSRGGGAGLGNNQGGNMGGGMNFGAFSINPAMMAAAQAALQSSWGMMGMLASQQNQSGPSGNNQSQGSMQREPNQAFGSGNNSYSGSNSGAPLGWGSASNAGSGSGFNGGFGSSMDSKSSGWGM
UniProt P28659: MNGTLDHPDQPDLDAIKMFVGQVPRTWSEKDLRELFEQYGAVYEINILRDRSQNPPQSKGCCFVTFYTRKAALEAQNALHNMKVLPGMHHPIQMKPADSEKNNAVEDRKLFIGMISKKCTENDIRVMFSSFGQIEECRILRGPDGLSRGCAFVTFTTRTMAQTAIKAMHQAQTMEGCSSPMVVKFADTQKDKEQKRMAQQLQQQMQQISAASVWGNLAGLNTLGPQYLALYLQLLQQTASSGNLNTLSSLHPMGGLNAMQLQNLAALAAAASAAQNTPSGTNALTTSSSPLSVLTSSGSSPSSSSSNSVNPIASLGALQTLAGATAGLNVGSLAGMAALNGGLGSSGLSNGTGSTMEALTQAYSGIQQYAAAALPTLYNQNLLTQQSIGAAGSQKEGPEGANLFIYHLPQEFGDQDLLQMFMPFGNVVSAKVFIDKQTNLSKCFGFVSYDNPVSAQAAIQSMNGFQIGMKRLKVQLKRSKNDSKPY

Biological target: TAR-DNA Binding Protein (TDP-43) (mouse (endogenous in female ESCs)) (UniProt Q921F2)
Assay: co-IP

binding: binds
Substance: CUG-Binding Protein 1 (CELF1) (from UniProt P28659 1-486)
